In PubChem BioAssay AID504648 (National Center for Advancing Translational Sciences (NCATS), 2011):
About 610 (0.16%) of roughly 390,000 compounds were called active. Inconclusive results, whose numbers are uncertain, are shown with a selection of clear calls. The call rests on the fitted dose curve; in most records, active means well fitted inhibition curve with a large enough effect; inconclusive means small, poorly fitted or top-dose-only effect, or effect the other way, or another doubt; inactive means no such curve, though single readings can be large or run the other way. Potencies of inconclusive entries are doubtful fits and often do not repeat.

Assay: Nrf2 qHTS screen for inhibitors: counterscreen for cytotoxicity
Conditions: A549 ARE-Fluc cells, CellTiter-Fluor viability, 18-24 h; activity change, negative = cytotoxicity: at 46 µM (top of the series)
Procedure, shortened: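 A549 ARE_Fluc cells in 5% FBS OPTI-MEM were exposed to compounds in concentration-response for 18-24 h at 37 deg C. Viability was read by CellTiter-Fluor fluorescence (Ex 405/Em 525) after 30 min, before the luciferase read.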
On the % scale 0 is the no-effect control and ±100 the full control effect; potency means the concentration at half of the fitted maximal effect.

| Compound | Potency | activity change, negative = cytotoxicity |
| --- | --- | --- |
| Cc1cccc(N2CCN(C(=O)c3nn(C)c4c3CS(=O)(=O)c3ccccc3-4)CC2C)c1 (stereo unspecified) | inconclusive: 13 µM [activator, partial curve, poor fit] | – |
| Cc1ccc(S(=O)(=O)Cn2nnnc2C(CC(C)C)N2CCC(C(N)=O)CC2)cc1 (stereo unspecified) | inconclusive: 0.13 µM [activator, full curve, poor fit] | – |
| Cc1ccc(/C=N/NC(=O)C2COc3ccccc3O2)s1 (stereo unspecified) | inconclusive: 1.16 µM [falling, partial curve, poor fit] | – |
| Cc1ccc(C)c(Nc2nn3c(=O)c4ccc(C(=O)NCc5cccs5)cc4nc3s2)c1 | inconclusive: 25.9 µM [falling, partial curve, poor fit] | – |
| CCN(CC)CCN(C(=O)CN1C(=O)CCC1=O)c1nc2cc3c(cc2s1)OCO3 | inconclusive: 20.6 µM [activator, partial curve, poor fit] | – |
| O=C(O)CCC(=O)Nc1cc(C(F)(F)F)cc(C(F)(F)F)c1 | – | inactive: 0% |
| COc1ccc(C(=O)NCC(c2ccco2)S(=O)(=O)c2cccs2)cc1 (stereo unspecified) | – | inactive: -0.785% |
| CCCn1c(/C=C/c2cc[n+](C)cc2)nc2ccccc21 | inconclusive: 16.4 µM [activator, partial curve] | – |
| Cc1cc(O)c(C(=O)/C=C/c2cccc([N+](=O)[O-])c2)c(=O)o1 | – | inactive: 2.49% |
| CC(C)(O)C#Cc1ccc(CN2CCC(CO)(CCc3ccccc3)CC2)cc1 | inconclusive: 29.1 µM [activator, single point] | – |
| O=C(CN(C(=O)c1ccccc1Cl)C1CCCCC1)Nc1ccc(Cl)c([N+](=O)[O-])c1 | inconclusive: 29.1 µM [falling, single point] | – |
| NC1=NC(=Nc2cccc(S(N)(=O)=O)c2)c2ccccc21 | – | inactive: -11.6% |
| Cc1ccc(NCc2cccn2-c2nnc(N3CCC(C(=O)NCc4ccc(F)cc4)CC3)s2)cc1 | inconclusive: 32.6 µM [falling, partial curve, poor fit] | – |
| COc1cccc(NC(=O)Cn2c(=O)n(Cc3ccco3)c(=O)c3cc(OC)c(OC)cc32)c1 | – | inactive: 9.3% |
| CC(=O)C1=C(O)C(=O)N(c2cc(C(C)(C)C)on2)C1c1ccc(Br)cc1 (stereo unspecified) | – | inactive: 5.02% |
| CN(C)c1ccc(-c2nnn(Cc3ccccc3Br)n2)cc1 | – | inactive: 1.04% |
| Cc1ccc(S(=O)(=O)/C(C#N)=C/c2c(N3CCOCC3)nc3ccccn3c2=O)cc1 | inconclusive: 20.6 µM [activator, partial curve, poor fit] | – |
| CC(C)(C)C(=O)/C(=C/c1cccc([N+](=O)[O-])c1)n1cncn1 | inconclusive: 18.4 µM [falling, partial curve] | – |
| COc1cccc(Cl)c1NC(=O)N1CCc2c([nH]c3ccccc23)C1C(F)(F)F (stereo unspecified) | – | inactive: -8.9% |
| Cc1cc2cccc(C)c2nc1SCC(=O)N(C)c1nc(-c2ccccc2)cs1 | inconclusive: 23.1 µM [falling, partial curve, poor fit] | – |
| O=C(Nc1ccc(S(=O)(=O)N2CCCCC2)cc1)c1ccc(Cl)nc1 | – | inactive: -11.6% |
| Cc1ccc(-n2c(-c3ccco3)nc3c(cnn3-c3ccc(C)cc3)c2=O)cc1 | inconclusive: 4.11 µM [activator, partial curve, poor fit] | – |

| Compound | Potency | activity change, negative = cytotoxicity |
| --- | --- | --- |
| Cc1c(C(=O)Nc2cc(S(=O)(=O)N3CCOCC3)ccc2N2CCN(C)CC2)oc2ccccc12 | inconclusive: 23.1 µM [falling, partial curve, poor fit] | – |
| O=C(Cc1cccc2ccccc12)NC(NC(=S)Nc1ccccc1Cl)C(Cl)(Cl)Cl (stereo unspecified) | inconclusive: 20.6 µM [falling, partial curve, poor fit] | – |
| CC1=C(C(=O)OCC2CCCCC2)C(c2cccc(F)c2F)CC(=O)N1 (stereo unspecified) | – | inactive: 0.593% |
| COc1ccc(C(=O)O/N=C(\N)c2cccc(C)c2)cc1OC | inconclusive: 29.1 µM [falling, partial curve, poor fit] | – |
| Cn1c(=O)c(S(=O)C2CCCCC2)c(O)c2ccccc21 (stereo unspecified) | inconclusive: 4.61 µM [activator, partial curve, poor fit] | – |
| COc1cc(Cl)ccc1NC(=S)N(CCCN1CCOCC1)Cc1cn(C)c2ccccc12 | inconclusive: 18.4 µM [falling, single point] | – |
| O=C(N/N=C/c1ccc[nH]1)c1sc2ccccc2c1Cl | inconclusive: 29.1 µM [falling, partial curve, poor fit] | – |
| O=C(CNC(=O)c1ccc(F)cc1)c1ccc(Cl)cc1 | inconclusive: 5.8 µM [activator, full curve, poor fit] | – |
| COc1cccc(Nc2nnc(SCC(=O)Nc3sccc3C(N)=O)s2)c1 | – | inactive: 9.56% |
| Cc1ccccc1-c1ccccc1CN1[C@@H](C(C)C)COCCS1(=O)=O | inconclusive: 32.6 µM [activator, partial curve, poor fit] | – |
| Cc1cccc(N2CCN(c3ncnc4onc(C)c34)CC2C)c1 (stereo unspecified) | inconclusive: 29.1 µM [falling, single point] | – |
| CCc1cccc(C)c1NC(=O)c1cn2c3c(ccc(Cl)c3c1=O)OC(C)C2 (stereo unspecified) | inconclusive: 16.4 µM [activator, partial curve, poor fit] | – |
| CC(=O)N/C(=C\c1ccccc1)C(=O)NCc1ccc2c(c1)OCO2 | inconclusive: 2.31 µM [activator, partial curve, poor fit] | – |
| Cn1c(SCc2ccc(F)cc2)nc2ccc(C(=O)NCc3ccccc3)cc21 | – | inactive: -25.9% |
| Oc1ccc(N=Nc2n[nH]c(-c3ccccc3)n2)cc1 | inconclusive: 23.1 µM [falling, single point] | – |
| CCC(C)(C)C1CCC2(CC1)NC(=O)N(CC(=O)N(C)CC(=O)Nc1ccccc1C(F)(F)F)C2=O (stereo unspecified) | – | inactive: -19.9% |
| COc1ccc(C(=O)CC(Nc2ccc([N+](=O)[O-])cc2)c2ccc(Cl)cc2)cc1 (stereo unspecified) | inconclusive: 23.1 µM [falling, single point] | – |
| CCOc1ccc(C2CC(c3c(O)c4ccccc4oc3=O)=NN2c2ccccc2)cc1OC (stereo unspecified) | inconclusive: 29.1 µM [activator, single point] | – |
| Cc1ccc(SCc2cc(=O)n3[nH]c(C)nc3n2)cc1 | inconclusive: 5.8 µM [falling, single point] | – |
| CC(=O)CCSc1nnc(-c2cccc(S(=O)(=O)N3CCOCC3)c2)o1 | – | inactive: -0.858% |
| Cc1cc(N/N=C/c2cccc(Cl)c2)nc(NCc2ccccc2)n1 | inconclusive: 29.1 µM [falling, single point] | – |
| CC(C)c1ccc(NC(=O)C2CCCN(S(=O)(=O)c3ccc4[nH]c(=O)ccc4c3)C2)cc1 (stereo unspecified) | inconclusive: 20.6 µM [falling, single point] | – |

| Compound | Potency | activity change, negative = cytotoxicity |
| --- | --- | --- |
| O=C(CSc1nnc(-c2ccccc2)o1)Oc1ccc(Br)cc1 | inconclusive: 29.1 µM [activator, partial curve, poor fit] | – |
| CCN(Cc1ccccc1)c1ccc(N=Nc2nn(C)c(C)c2[N+](=O)[O-])cc1 | active: 16.4 µM | – |
| Cc1cccc(NC(=O)CN2CCN(C(=O)c3ccc(-c4nc5ccccc5s4)o3)CC2)c1C | inconclusive: 29.1 µM [falling, single point] | – |
| O=C(O)C1C2C=CC(C2)C1C(=O)N1CCOCC1 (stereo unspecified) | inconclusive: 32.6 µM [activator, partial curve, poor fit] | – |
| CCN(CC)S(=O)(=O)c1cc(NC(=O)c2ccc(-n3cncn3)c([N+](=O)[O-])c2)ccc1C | inconclusive: 20.6 µM [falling, partial curve, poor fit] | – |
| Cc1nc2scc(C)n2c(=O)c1S(=O)(=O)NCCc1ccc(Cl)cc1 | inconclusive: 1.84 µM [activator, partial curve, poor fit] | – |
| CCOc1c(Br)cc(CNC2CCCCCCC2)cc1OC | inconclusive: 20.6 µM [falling, single point] | – |
| CCN(CC)CCN=C1CCCc2ccccc2N1 | inconclusive: 18.4 µM [falling, partial curve] | – |
| COc1ccccc1[C@@H]1C(c2cccc(Cl)c2)=NN(c2ccccc2)[C@H]1C(=O)N1CCOC1=O | inconclusive: 20.6 µM [activator, partial curve, poor fit] | – |
| CC(C)Oc1ccc(CNC(=O)Cn2ncn3nc(-c4cccs4)cc3c2=O)cc1 | – | inactive: 11.5% |
| O=C1CCN(C(=O)/C=C/c2ccccc2)c2ccccc21 | – | inactive: 10.2% |
| COCc1cc(Sc2ccc(Cl)cc2)nc(C)n1 | – | inactive: 1.61% |
| C=CCNc1nc(N)c(C(=C(C#N)C#N)c2ccc(Br)cc2)s1 | inconclusive: 32.6 µM [falling, partial curve, poor fit] | – |
| Cc1ccc(Nc2nc3nonc3[nH]c2=O)cc1Cl | inconclusive: 25.9 µM [falling, partial curve, poor fit] | – |
| O=[N+]([O-])c1cc(CN2CCN(c3ccccc3)CC2)c(O)c2ncccc12 | inconclusive: 9.2 µM [falling, partial curve] | – |
| Cc1cc(C)c(S(=O)(=O)N2CCCC(C(=O)NCCC3=CCCCC3)C2)c(C)c1 (stereo unspecified) | inconclusive: 29.1 µM [falling, single point] | – |
| CCc1cccc(NC(=O)c2ccc(CNS(=O)(=O)c3ccc4c(c3)C(C)(C)C(=O)N4C)cc2)c1 | – | inactive: -20.9% |
| Cc1cc(N2CCN(S(=O)(=O)c3ccc(Cl)c(Cl)c3)CC2)c2ccccc2n1 | – | inactive: -3% |
| O=C(Oc1ccc(=O)n(-c2ccccc2)n1)c1ccc(Cl)cc1 | – | inactive: -8.97% |
| COc1ccccc1CNC(=O)c1oc2ccc(S(=O)(=O)N3CCCC3)cc2c1C | – | inactive: 7.7% |
| O=C(Nc1ccc(C(F)(F)F)cc1)N1CCC(N2CCCCC2)CC1 | – | inactive: -3.29% |
| COCC(O)CNc1ccccc1 (stereo unspecified) | inconclusive: 10.3 µM [activator, partial curve, poor fit] | – |

Rewritten with each value named: 3 of the compounds above.
O=C(CN(C(=O)c1ccccc1Cl)C1CCCCC1)Nc1ccc(Cl)c([N+](=O)[O-])c1
  Potency: inconclusive: 29.1 µM [falling, single point]
CC(=O)CCSc1nnc(-c2cccc(S(=O)(=O)N3CCOCC3)c2)o1
  activity change, negative = cytotoxicity: inactive: -0.858%
O=C1CCN(C(=O)/C=C/c2ccccc2)c2ccccc21
  activity change, negative = cytotoxicity: inactive: 10.2%
